Where “and” joins values, the source holds several entries; their conditions need not be identical. Equal entries are not always repeated.
B1: Chimera 277-365: CYP102A1 heme domain with residues 277-365 from CYP102A2 (protein)
chain: TIKEMPQPKTFGELKNLPLLNTDKPVQALMKIADELGEIFKFEAPGRVTRYLSSQRLIKEACDESRFDKNLSQALKFVRDFAGDGLATSWTHEKNWKKAHNILLPSFSQQAMKGYHAMMVDIAVQLVQKWERLNADEHIEVPEDMTRLTLDTIGLCGFNYRFNSFYRDQPHPFITSMVRALDEAMNKLQRANPDDPAYDENKRQFQEDIKVMNDLVDKIIADRKASGEQSDDLLTHMLNGKDPETGEPLDDENIRYQIITFLIAGHETTSGLLSFATYFLLKHPDKLKKAYEEVDRVLTDAAPTYKQVLELTYIRMILNESLRLWPTAPAFSLYPKEDTVIGGKFPITTNDRISVLIPQLHRDRDIWGDDVEEFRPERFENPSAIPQHAFKPFGNGQRACIGQQFALHEATLVLGMMLKHFDFEDHTNYELDIKETLTLKPEGFVVKAKSKKIPLGGIPSPST
modifications: Chimeric Cytochrome P450 heme group sequence from Bacillus megaterium and Bacillus subtilis
notes: CYP102A1 heme domain with residues 277-365 from CYP102A2
B2: Chimera 191-335: CYP102A1 heme domain with residues 191-335 from CYP102A2 (protein)
chain: TIKEMPQPKTFGELKNLPLLNTDKPVQALMKIADELGEIFKFEAPGRVTRYLSSQRLIKEACDESRFDKNLSQALKFVRDFAGDGLATSWTHEKNWKKAHNILLPSFSQQAMKGYHAMMVDIAVQLVQKWERLNADEHIEVPEDMTRLTLDTIGLCGFNYRFNSFYRDQPHPFITSMVRALDEAMNKLQRLDVQDKLMVRTKRQFRYDIQTMFSLVDSIIAERRANGDQDEKDLLARMLNVEDPETGEKLDDENIRFQIITFLIAGHETTSGLLSFATYFLLKHPDKLKKAYEEVDRVLTDAAPTYKQVLELTYIRMILNESLRLWPTAPAFSLYPKEDTVLGGEYPLEKGDELMVLIPQLHRDKTIWGDDVEEFRPERFENPSAIPQHAFKPFGNGQRACIGQQFALHEATLVLGMMLKHFDFEDHTNYELDIKETLTLKPEGFVVKAKSKKIPLGGIPSPST
modifications: Chimeric Cytochrome P450 heme group sequence from Bacillus megaterium and Bacillus subtilis
notes: CYP102A1 heme domain with residues 191-335 from CYP102A2
B3: Chimera 169-197: CYP102A1 heme domain with residues 169-197 from CYP102A2 (protein)
chain: TIKEMPQPKTFGELKNLPLLNTDKPVQALMKIADELGEIFKFEAPGRVTRYLSSQRLIKEACDESRFDKNLSQALKFVRDFAGDGLATSWTHEKNWKKAHNILLPSFSQQAMKGYHAMMVDIAVQLVQKWERLNADEHIEVPEDMTRLTLDTIGLCGFNYRFNSFYRDTPHPFINSMVRALDEAMHQMQRLDVQDKLYDENKRQFQEDIKVMNDLVDKIIADRKASGEQSDDLLTHMLNGKDPETGEPLDDENIRYQIITFLIAGHETTSGLLSFALYFLVKNPHVLQKAAEEAARVLVDPVPSYKQVKQLKYVGMVLNEALRLWPTAPAFSLYAKEDTVLGGEYPLEKGDELMVLIPQLHRDKTIWGDDVEEFRPERFENPSAIPQHAFKPFGNGQRACIGQQFALHEATLVLGMMLKHFDFEDHTNYELDIKETLTLKPEGFVVKAKSKKIPLGGIPSPST
modifications: Chimeric Cytochrome P450 heme group sequence from Bacillus megaterium and Bacillus subtilis
notes: CYP102A1 heme domain with residues 169-197 from CYP102A2
B4: Chimera 165-256M: mirror chimera of 165-256, sequences from opposite parents at every position (protein)
chain: KETSPIPQPKTFGPLGNLPLIDKDKPTLSLIKLAEEQGPIFQIHTPAGTTIVVSGHELVKEVCDEERFDKSIEGALEKVRAFSGDGLATSWTHEPNWRKAHNILMPTFSQRAMKDYHEKMVDIAVQLIQKWARLNPNEAVDVPGDMTRLTLDTIGLCGFNYRFNSFYRDQPHPFITSMVRALDEAMNKLQRANPDDPAYDENKRQFQEDIKVMNDLVDKIIADRKASGEQSDDLLTHMLNGKDPETGEPLDDENIRYQIITFLIAGHETTSGLLSFATYFLLKHPDKLKKAYEEVDRVLTDAAPTYKQVLELTYIRMILNESLRLWPTAPAFSLYPKEDTVIGGKFPITTNDRISVLIPQLHRDRDAWGKDAEEFRPERFEHQDQVPHHAYKPFGNGQRACIGMQFALHEATLVLGMILKYFTLIDHENYELDIKQTLTLKPGDFHISVQSRHQEAIHADVQAAE
modifications: Chimeric Cytochrome P450 heme group sequence from Bacillus megaterium and Bacillus subtilis
B5: Chimera 118-194: CYP102A1 heme domain with residues 118-194 from CYP102A2 (protein)
chain: TIKEMPQPKTFGELKNLPLLNTDKPVQALMKIADELGEIFKFEAPGRVTRYLSSQRLIKEACDESRFDKNLSQALKFVRDFAGDGLATSWTHEKNWKKAHNILLPSFSQQAMKGYHAKMVDIAVQLIQKWARLNPNEAVDVPGDMTRLTLDTIGLCGFNYRFNSYYRETPHPFINSMVRALDEAMHQMQRLDVQDPAYDENKRQFQEDIKVMNDLVDKIIADRKASGEQSDDLLTHMLNGKDPETGEPLDDENIRYQIITFLIAGHETTSGLLSFALYFLVKNPHVLQKAAEEAARVLVDPVPSYKQVKQLKYVGMVLNEALRLWPTAPAFSLYAKEDTVLGGEYPLEKGDELMVLIPQLHRDKTIWGDDVEEFRPERFENPSAIPQHAFKPFGNGQRACIGQQFALHEATLVLGMMLKHFDFEDHTNYELDIKETLTLKPEGFVVKAKSKKIPLGGIPSPST
modifications: Chimeric Cytochrome P450 heme group sequence from Bacillus megaterium and Bacillus subtilis
notes: CYP102A1 heme domain with residues 118-194 from CYP102A2
B6: Chimera 169-197M: mirror chimera of 169-197, sequences from opposite parents at every position (protein)
chain: KETSPIPQPKTFGPLGNLPLIDKDKPTLSLIKLAEEQGPIFQIHTPAGTTIVVSGHELVKEVCDEERFDKSIEGALEKVRAFSGDGLATSWTHEPNWRKAHNILMPTFSQRAMKDYHEKMVDIAVQLIQKWARLNPNEAVDVPGDMTRLTLDTIGLCGFNYRFNSYYREQPHPFITSMVRALDEAMNKLQRANPDDPAMVRTKRQFRYDIQTMFSLVDSIIAERRANGDQDEKDLLARMLNVEDPETGEKLDDENIRFQIITFLIAGHETTSGLLSFATYFLLKHPDKLKKAYEEVDRVLTDAAPTYKQVLELTYIRMILNESLRLWPTAPAFSLYPKEDTVIGGKFPITTNDRISVLIPQLHRDRDAWGKDAEEFRPERFEHQDQVPHHAYKPFGNGQRACIGMQFALHEATLVLGMILKYFTLIDHENYELDIKQTLTLKPGDFHISVQSRHQEAIHADVQAAE
modifications: Chimeric Cytochrome P450 heme group sequence from Bacillus megaterium and Bacillus subtilis
B7: Chimera 65-256: CYP102A1 heme domain with residues 65-256 from CYP102A2 (protein)
chain: TIKEMPQPKTFGELKNLPLLNTDKPVQALMKIADELGEIFKFEAPGRVTRYLSSQRLIKEACDEERFDKSIEGALEKVRAFSGDGLATSWTHEPNWRKAHNILMPTFSQRAMKDYHEKMVDIAVQLIQKWARLNPNEAVDVPGDMTRLTLDTIGLCGFNYRFNSYYRETPHPFINSMVRALDEAMHQMQRLDVQDKLMVRTKRQFRYDIQTMFSLVDSIIAERRANGDQDEKDLLARMLNVEDPETGEKLDDENIRFQIITFLIAGHETTSGLLSFALYFLVKNPHVLQKAAEEAARVLVDPVPSYKQVKQLKYVGMVLNEALRLWPTAPAFSLYAKEDTVLGGEYPLEKGDELMVLIPQLHRDKTIWGDDVEEFRPERFENPSAIPQHAFKPFGNGQRACIGQQFALHEATLVLGMMLKHFDFEDHTNYELDIKETLTLKPEGFVVKAKSKKIPLGGIPSPST
modifications: Chimeric Cytochrome P450 heme group sequence from Bacillus megaterium and Bacillus subtilis
notes: CYP102A1 heme domain with residues 65-256 from CYP102A2
B8: Chimera 285-341: CYP102A1 heme domain with residues 285-341 from CYP102A2 (protein)
chain: TIKEMPQPKTFGELKNLPLLNTDKPVQALMKIADELGEIFKFEAPGRVTRYLSSQRLIKEACDESRFDKNLSQALKFVRDFAGDGLATSWTHEKNWKKAHNILLPSFSQQAMKGYHAMMVDIAVQLVQKWERLNADEHIEVPEDMTRLTLDTIGLCGFNYRFNSFYRDQPHPFITSMVRALDEAMNKLQRANPDDPAYDENKRQFQEDIKVMNDLVDKIIADRKASGEQSDDLLTHMLNGKDPETGEPLDDENIRYQIITFLIAGHETTSGLLSFALYFLVKNPDKLKKAYEEVDRVLTDAAPTYKQVLELTYIRMILNESLRLWPTAPAFSLYPKEDTVIGGEYPLEKGDELMVLIPQLHRDKTIWGDDVEEFRPERFENPSAIPQHAFKPFGNGQRACIGQQFALHEATLVLGMMLKHFDFEDHTNYELDIKETLTLKPEGFVVKAKSKKIPLGGIPSPST
modifications: Chimeric Cytochrome P450 heme group sequence from Bacillus megaterium and Bacillus subtilis
notes: CYP102A1 heme domain with residues 285-341 from CYP102A2
B9: Chimera 165-256: CYP102A1 heme domain with residues 165-256 from CYP102A2 (protein)
chain: TIKEMPQPKTFGELKNLPLLNTDKPVQALMKIADELGEIFKFEAPGRVTRYLSSQRLIKEACDESRFDKNLSQALKFVRDFAGDGLATSWTHEKNWKKAHNILLPSFSQQAMKGYHAMMVDIAVQLVQKWERLNADEHIEVPEDMTRLTLDTIGLCGFNYRFNSYYRETPHPFINSMVRALDEAMHQMQRLDVQDKLMVRTKRQFRYDIQTMFSLVDSIIAERRANGDQDEKDLLARMLNVEDPETGEKLDDENIRFQIITFLIAGHETTSGLLSFALYFLVKNPHVLQKAAEEAARVLVDPVPSYKQVKQLKYVGMVLNEALRLWPTAPAFSLYAKEDTVLGGEYPLEKGDELMVLIPQLHRDKTIWGDDVEEFRPERFENPSAIPQHAFKPFGNGQRACIGQQFALHEATLVLGMMLKHFDFEDHTNYELDIKETLTLKPEGFVVKAKSKKIPLGGIPSPST
modifications: Chimeric Cytochrome P450 heme group sequence from Bacillus megaterium and Bacillus subtilis
notes: CYP102A1 heme domain with residues 165-256 from CYP102A2

Assay: Folding by reduced CO difference spectroscopy (Soret band)
Format: physicochemical
Conditions: for Folded: reduced CO difference spectroscopy; for λ max for Soret band: reduced CO difference spectrum

Molecule | Folded | λ max for Soret band
B1 | yes | 420 nm and 421 nm
B2 | yes | 449 nm
B3 | yes | 449 nm
B4 | yes | 448 nm
B5 | yes | 449 nm
B6 | yes | 449 nm
B7 | yes | 447 nm
B8 | yes | 448 nm
B9 | yes | 449 nm
